# Measured values from PMC4912623, “A CD36 ectodomain mediates insect pheromone detection via a putative tunnelling mechanism” (Nature Communications, 2016).
# Sequences of proteins named here, by UniProt entry; tags and fusion partners are left off.
# UniProt Q9VDD3: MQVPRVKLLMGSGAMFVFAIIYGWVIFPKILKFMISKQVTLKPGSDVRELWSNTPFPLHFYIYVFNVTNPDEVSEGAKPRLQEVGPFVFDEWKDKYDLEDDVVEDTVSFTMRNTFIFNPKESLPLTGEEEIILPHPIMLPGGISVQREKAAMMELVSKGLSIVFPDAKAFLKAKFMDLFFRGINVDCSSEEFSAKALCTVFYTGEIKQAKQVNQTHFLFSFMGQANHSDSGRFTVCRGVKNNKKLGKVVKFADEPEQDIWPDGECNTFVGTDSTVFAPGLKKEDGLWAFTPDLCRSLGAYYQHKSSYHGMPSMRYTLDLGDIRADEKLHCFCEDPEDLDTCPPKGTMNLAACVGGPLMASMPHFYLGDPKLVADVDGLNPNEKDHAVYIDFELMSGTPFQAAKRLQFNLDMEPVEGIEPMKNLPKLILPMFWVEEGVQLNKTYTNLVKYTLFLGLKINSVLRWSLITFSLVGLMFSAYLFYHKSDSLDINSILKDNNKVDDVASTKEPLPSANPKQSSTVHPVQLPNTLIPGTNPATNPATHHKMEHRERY
# No constants are given. Whether binding was seen depends on the method and setting.
# Target: Drosophila sensory neuron membrane protein 1 with a C-terminal EGFP tag (SNMP1:EGFP) (D. melanogaster) (UniProt Q9VDD3)
# Experiment: single-molecule imaging, counting of EGFP photobleaching steps (total internal reflection fluorescence microscopy); SNMP1:EGFP in the plasma membrane of Xenopus oocytes, 12-24 h after cRNA injection (0.02 ug/ul, 50 nl), expression at 15 °C; bleaching steps of single spots examined by eye
substance,measurement,value
Drosophila sensory neuron membrane protein 1 with a C-terminal EGFP tag (SNMP1:EGFP) (from UniProt Q9VDD3 1-551),binding,no binding
